Measurements as given in PMC9988979.
Results are given in words; binding and its absence hold for the method and conditions named. Binding seen in cells or lysates may run through a third protein. Some binding calls cover weakened binding; strength is not graded here. For part of these data: Where a sequence is shown, tags or fusion partners need not be part of it. Values belong to the binder of their own block, whether it stands above or below them.

What was measured:
[1] = molecular target: ACOX1 (glutaraldehyde cross-linking experiment) (not stated (human or mouse cDNA cloned)) (UniProt Q15067); test: cross-linking; glutaraldehyde cross-linking of ACOX1 (Supplementary Fig. S6g); conditions not shown
[2] = molecular target: T1, ACOX1, endogenous (human (endogenous in HCT15 and RKO)) (UniProt Q15067); test: co-IP; endogenous proteins in HCT15 and RKO cells; cells treated with MG132 (20 μM) for 6 h before harvest
T1 sequence: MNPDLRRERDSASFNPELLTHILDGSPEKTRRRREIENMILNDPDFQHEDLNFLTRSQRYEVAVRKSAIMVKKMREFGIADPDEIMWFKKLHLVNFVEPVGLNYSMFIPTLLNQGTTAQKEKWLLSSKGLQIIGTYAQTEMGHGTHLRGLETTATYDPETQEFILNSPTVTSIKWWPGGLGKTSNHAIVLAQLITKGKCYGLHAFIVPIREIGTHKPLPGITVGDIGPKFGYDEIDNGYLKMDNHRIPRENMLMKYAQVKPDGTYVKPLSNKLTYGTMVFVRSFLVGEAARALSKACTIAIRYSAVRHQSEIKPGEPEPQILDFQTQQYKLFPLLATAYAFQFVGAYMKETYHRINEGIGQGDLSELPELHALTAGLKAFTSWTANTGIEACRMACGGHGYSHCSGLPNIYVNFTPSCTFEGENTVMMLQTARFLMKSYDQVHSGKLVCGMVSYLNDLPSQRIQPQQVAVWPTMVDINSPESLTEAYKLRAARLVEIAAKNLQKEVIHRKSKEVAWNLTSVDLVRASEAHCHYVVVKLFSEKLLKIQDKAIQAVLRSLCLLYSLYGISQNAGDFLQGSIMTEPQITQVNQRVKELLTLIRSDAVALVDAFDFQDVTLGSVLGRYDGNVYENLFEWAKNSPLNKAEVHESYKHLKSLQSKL

[3] = molecular target: T2, Flag-tagged ACOX1 (acyl-CoA oxidase 1) (human) (UniProt Q15067); test: co-IP; HEK293T cells transfected with ACOX1 or DUSP14 whole and deletion constructs; lysates on anti-Flag agarose beads overnight at 4 °C, immunoblot
T2 sequence: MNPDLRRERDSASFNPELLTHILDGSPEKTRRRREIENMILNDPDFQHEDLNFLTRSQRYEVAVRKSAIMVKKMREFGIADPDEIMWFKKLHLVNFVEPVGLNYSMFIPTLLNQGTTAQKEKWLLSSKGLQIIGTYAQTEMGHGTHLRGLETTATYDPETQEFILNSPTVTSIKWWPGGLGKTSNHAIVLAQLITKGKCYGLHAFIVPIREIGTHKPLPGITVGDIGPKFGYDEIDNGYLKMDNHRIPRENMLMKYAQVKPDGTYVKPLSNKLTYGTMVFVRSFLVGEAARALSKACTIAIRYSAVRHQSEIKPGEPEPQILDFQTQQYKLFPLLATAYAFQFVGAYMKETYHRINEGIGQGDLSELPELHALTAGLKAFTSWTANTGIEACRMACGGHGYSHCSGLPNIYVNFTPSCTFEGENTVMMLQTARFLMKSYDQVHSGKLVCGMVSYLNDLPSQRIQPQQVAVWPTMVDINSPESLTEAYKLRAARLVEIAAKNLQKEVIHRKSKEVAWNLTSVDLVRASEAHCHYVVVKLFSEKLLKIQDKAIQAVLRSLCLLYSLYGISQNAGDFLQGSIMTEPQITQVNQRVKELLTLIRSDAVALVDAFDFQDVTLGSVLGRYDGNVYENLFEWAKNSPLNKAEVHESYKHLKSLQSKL

binding [1]: binds
B1: ACOX1 (glutaraldehyde cross-linking experiment) (enzyme, UniProt Q15067 1-660)
chain: MNPDLRRERDSASFNPELLTHILDGSPEKTRRRREIENMILNDPDFQHEDLNFLTRSQRYEVAVRKSAIMVKKMREFGIADPDEIMWFKKLHLVNFVEPVGLNYSMFIPTLLNQGTTAQKEKWLLSSKGLQIIGTYAQTEMGHGTHLRGLETTATYDPETQEFILNSPTVTSIKWWPGGLGKTSNHAIVLAQLITKGKCYGLHAFIVPIREIGTHKPLPGITVGDIGPKFGYDEIDNGYLKMDNHRIPRENMLMKYAQVKPDGTYVKPLSNKLTYGTMVFVRSFLVGEAARALSKACTIAIRYSAVRHQSEIKPGEPEPQILDFQTQQYKLFPLLATAYAFQFVGAYMKETYHRINEGIGQGDLSELPELHALTAGLKAFTSWTANTGIEACRMACGGHGYSHCSGLPNIYVNFTPSCTFEGENTVMMLQTARFLMKSYDQVHSGKLVCGMVSYLNDLPSQRIQPQQVAVWPTMVDINSPESLTEAYKLRAARLVEIAAKNLQKEVIHRKSKEVAWNLTSVDLVRASEAHCHYVVVKLFSEKLLKIQDKAIQAVLRSLCLLYSLYGISQNAGDFLQGSIMTEPQITQVNQRVKELLTLIRSDAVALVDAFDFQDVTLGSVLGRYDGNVYENLFEWAKNSPLNKAEVHESYKHLKSLQSKL

binding [2]: binds
B2: DUSP14, endogenous (enzyme, UniProt O95147 1-198)
chain: MSSRGHSTLPRTLMAPRMISEGDIGGIAQITSSLFLGRGSVASNRHLLQARGITCIVNATIEIPNFNWPQFEYVKVPLADMPHAPIGLYFDTVADKIHSVSRKHGATLVHCAAGVSRSATLCIAYLMKFHNVCLLEAYNWVKARRPVIRPNVGFWRQLIDYERQLFGKSTVKMVQTPYGIVPDVYEKESRHLMPYWGI

binding [3]: binds
B3: DUSP14, transfected in HEK293T (enzyme, UniProt O95147 1-198)
chain: MSSRGHSTLPRTLMAPRMISEGDIGGIAQITSSLFLGRGSVASNRHLLQARGITCIVNATIEIPNFNWPQFEYVKVPLADMPHAPIGLYFDTVADKIHSVSRKHGATLVHCAAGVSRSATLCIAYLMKFHNVCLLEAYNWVKARRPVIRPNVGFWRQLIDYERQLFGKSTVKMVQTPYGIVPDVYEKESRHLMPYWGI
